Measured values from the supplement of paper PMC10331698.
± gives the standard deviation of the averaged measurements. Most values lie at the level of the controls, where differences are scatter.

Legend:
Assay in all cases: level (log10 ratio to DMSO vehicle control); higher = higher biomarker level / cell amount than vehicle control
[1] = compound: O=C(O)C(F)(F)C(F)(F)C(F)(F)C(F)(F)C(F)(F)F [Perfluorohexanoic acid] (in DMSO)
Protocol: (§1)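 BioMAP Diversity Plus panel of 12 human primary cell co-culture systems (3C, 4H, LPS, SAg, BT, BF4T, BE3C, CASM3C, HDF3CGF, KF3CT, MyoF, Mphg). Compounds were added 1 h before stimulation and left for 24 h (MyoF 48 h; BT 72 h for soluble read-outs or 6 d for IgG). Biomarkers were read by ELISA, cytotoxicity by SRB, PBMC viability and proliferation by Alamar Blue. Each well value was divided by the mean of 8 DMSO control wells on the same plate and log10 transformed; duplicate blinded samples were tested at 4 concentrations.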

[2] = compound: FC(F)(F)C(F)(F)C(F)(F)C(F)(F)CCI [1H,1H,2H,2H-Perfluorohexyl iodide] (in DMSO); settings: 2200 nM
Protocol: as §1

[3] = compound: OCC(F)(F)C(F)(F)C(F)(F)C(F)(F)C(F)(F)C(F)(F)CO [1H,1H,8H,8H-Perfluorooctane-1,8-diol] (in DMSO); settings: 2200 nM
Protocol: as §1

[4] = compound: O=C(O)C(F)(OC(F)(F)C(F)(F)C(F)(F)F)C(F)(F)F [Ammonium perfluoro-2-methyl-3-oxahexanoate] (in Water)
Protocol: as §1

[5] = compound: O=C(O)C(F)(F)C(F)(F)C(F)(F)C(=O)O [Hexafluoroglutaric acid] (in DMSO)
Protocol: as §1

[6] = compound: O=S(=O)(O)C(F)(F)C(F)(F)C(F)(F)C(F)(F)F [Perfluorobutanesulfonic acid] (in DMSO)
Protocol: as §1

[7] = compound: OCCCC(F)(F)C(F)(F)C(F)(F)C(F)(F)C(F)(F)C(F)(F)C(F)(F)C(F)(F)F [3-(Perfluorooctyl)propanol] (in DMSO); settings: 2200 nM
Protocol: as §1

[8] = compound: OCC(F)(F)C(F)(F)C(F)(F)C(F)F [1H,1H,5H-Perfluoropentanol] (in DMSO); settings: 2200 nM
Protocol: as §1

[9] = compound: CNS(=O)(=O)C(F)(F)C(F)(F)C(F)(F)C(F)(F)C(F)(F)C(F)(F)C(F)(F)C(F)(F)F [N-Methylperfluorooctanesulfonamide] (in DMSO); settings: 2200 nM
Protocol: as §1

[10] = compound: FC(F)(F)C(F)(F)CNCC(F)(F)C(F)(F)F [Bis(1H,1H-perfluoropropyl)amine] (in DMSO); settings: 2200 nM
Protocol: as §1

[11] = compound: C=C(C)C(=O)OCCC(F)(F)C(F)(F)C(F)(F)C(F)(F)C(F)(F)C(F)(F)F [6:2 Fluorotelomer methacrylate] (in DMSO); settings: 2200 nM
Protocol: as §1

[12] = compound: O=C(O)C(F)(F)C(F)(F)C(F)(F)OC(F)(C(F)(F)F)C(F)(F)F [Perfluoro-4-isopropoxybutanoic acid] (in DMSO); settings: 2200 nM
Protocol: as §1

[13] = compound: OCC(F)(F)OC(F)(F)C(F)(F)OC(F)(F)CO [1H,1H,8H,8H-Perfluoro-3,6-dioxaoctane-1,8-diol] (in DMSO); settings: 2200 nM
Protocol: as §1

[14] = compound: FC(F)(F)COC(OCC(F)(F)F)OCC(F)(F)F [tris(Trifluoroethoxy)methane] (in DMSO); settings: 2200 nM
Protocol: as §1

[15] = compound: O=C(O)CCC(F)(F)C(F)(F)C(F)(F)F [3:3 Fluorotelomer carboxylic acid] (in DMSO); settings: 2200 nM
Protocol: as §1

[16] = compound: OCC(F)(F)C(F)(F)C(F)(F)C(F)(F)C(F)(F)C(F)(F)F [6:1 Fluorotelomer alcohol] (in DMSO); settings: 2200 nM
Protocol: as §1

[17] = compound: O=C(O)C(F)(OC(F)(F)C(F)(OC(F)(F)C(F)(OC(F)(F)C(F)(F)C(F)(F)F)C(F)(F)F)C(F)(F)F)C(F)(F)F [Perfluoro-(2,5,8-trimethyl-3,6,9-trioxadodecanoic)acid] (in DMSO); settings: 370 nM
Protocol: as §1

| Test System | level (log10) ([1]; 2200 nM) | level (log10) ([1]; 6700 nM) | level (log10) ([1]; 20000 nM) | level (log10) ([1]; 60000 nM) | level (log10) [2] | level (log10) [3] | level (log10) ([4]; 2200 nM) | level (log10) ([4]; 6700 nM) | level (log10) ([4]; 20000 nM) | level (log10) ([4]; 60000 nM) | level (log10) ([5]; 2200 nM) | level (log10) ([5]; 6700 nM) | level (log10) ([5]; 20000 nM) | level (log10) ([5]; 60000 nM) | level (log10) ([6]; 2200 nM) | level (log10) ([6]; 6700 nM) | level (log10) ([6]; 20000 nM) | level (log10) ([6]; 60000 nM) | level (log10) [7] | level (log10) [8] | level (log10) [9] | level (log10) [10] | level (log10) [11] | level (log10) [12] | level (log10) [13] | level (log10) [14] | level (log10) [15] | level (log10) [16] | level (log10) [17] |
| --- | --- | --- | --- | --- | --- | --- | --- | --- | --- | --- | --- | --- | --- | --- | --- | --- | --- | --- | --- | --- | --- | --- | --- | --- | --- | --- | --- | --- | --- |
| MyoF:SRB | -0.013 ± 0.0028 | 0.009 ± 0.0014 | 0.008 ± 0.0085 | 0.007 ± 0.0057 | 0.008 ± 0.0085 | -0.004 ± 0.0042 | 0.01 ± 0.017 | 0.0095 ± 0.0035 | 0.013 ± 0.013 | 0.0085 ± 0.0035 | 0 ± 0.0042 | 0.0015 ± 0.00071 | -0.002 ± 0.0085 | -0.0045 ± 0.0092 | -0.002 ± 0.0014 | -0.002 ± 0.0071 | -0.0035 ± 0.00071 | 0.0085 ± 0.00071 | 0.0035 ± 0.013 | 0.008 ± 0.0085 | 0.0125 ± 0.015 | 0.001 ± 0.018 | 0.0015 ± 0.0092 | 0.0065 ± 0.013 | -0.0015 ± 0.013 | 0.003 ± 0.0085 | 0.006 ± 0.011 | 0.01 ± 0.017 | 0.0075 ± 0.029 |
| MyoF:TIMP-1 | 0.0175 ± 0.011 | 0.0085 ± 0.0021 | -0.006 ± 0.0042 | 0.0245 ± 0.0064 | 0.0395 ± 0.052 | 0.001 ± 0.064 | -0.0675 ± 0.056 | -0.0395 ± 0.0092 | -0.0635 ± 0.015 | -0.068 ± 0.0028 | -0.0215 ± 0.0064 | 0.001 ± 0.014 | -0.0545 ± 0.053 | -0.0205 ± 0.0035 | -0.0135 ± 0.029 | 0.012 ± 0.014 | 0.009 ± 0.0085 | 0.0205 ± 0.00071 | 0 ± 0.021 | 0.03 ± 0.0071 | 0.022 ± 0.045 | -0.0265 ± 0.013 | -0.0135 ± 0.052 | 0.0375 ± 0.044 | -0.0045 ± 0.029 | -0.0675 ± 0.044 | -0.0405 ± 0.03 | 0.022 ± 0.033 | 0.0025 ± 0.0064 |
| MyoF:alpha-SM Actin | 0.0335 ± 0.011 | -0.021 ± 0.016 | 0.011 ± 0.0099 | 0.013 ± 0.037 | 0.019 ± 0.0071 | 0.0105 ± 0.00071 | 0.0105 ± 0.005 | 0.001 ± 0.011 | 0.0005 ± 0.022 | -0.0035 ± 0.0035 | -0.0185 ± 0.018 | -0.008 ± 0.044 | -0.0065 ± 0.029 | 0.033 ± 0.017 | 0.012 | -0.016 ± 0.0099 | -0.0265 ± 0.0078 | -0.0195 ± 0.005 | 0.0075 ± 0.015 | -0.039 ± 0.059 | 0.004 ± 0.025 | 0.0235 ± 0.029 | -0.001 | 0.0045 ± 0.012 | -0.003 ± 0.0042 | 0.015 ± 0.021 | 0.0025 ± 0.0021 | 0.0225 ± 0.015 | 0.021 ± 0.047 |
| MyoF:bFGF | 0.0055 ± 0.0021 | 0.0005 ± 0.005 | -0.0105 ± 0.019 | 0.0005 ± 0.021 | 0.0025 ± 0.005 | 0.0055 ± 0.0092 | 0.001 ± 0.013 | 0.017 ± 0.0099 | 0.006 ± 0.0014 | 0.0005 ± 0.0092 | 0.006 ± 0.023 | 0.01 ± 0.014 | 0.0105 ± 0.013 | 0.017 ± 0.0014 | 0.017 ± 0.0085 | 0.0065 ± 0.013 | 0.0105 ± 0.018 | -0.0065 ± 0.0064 | 0.0065 ± 0.0035 | -0.016 ± 0.0042 | 0.014 ± 0.0042 | -0.0105 ± 0.019 | -0.0015 ± 0.015 | 0.001 ± 0.0071 | 0.014 ± 0.017 | -0.0095 ± 0.0092 | 0.006 ± 0.013 | -0.005 ± 0.0042 | 0.007 ± 0.023 |
| SAg:CCL2/MCP-1 | -0.001 ± 0.047 | -0.01 ± 0.0057 | -0.0255 ± 0.0078 | 0.0135 ± 0.018 | -0.0005 ± 0.013 | 0.007 ± 0.033 | 0.0345 ± 0.057 | -0.0245 ± 0.04 | 0.004 ± 0.017 | 0.0305 ± 0.059 | -0.0485 ± 0.015 | -0.028 ± 0.0071 | -0.0205 ± 0.0035 | -0.0205 ± 0.016 | -0.0055 ± 0.05 | -0.0225 ± 0.0092 | -0.0075 ± 0.0064 | 0.0185 ± 0.033 | 0.0005 ± 0.0021 | 0.0175 ± 0.0064 | -0.0165 ± 0.018 | 0.0075 ± 0.0064 | 0.0145 ± 0.094 | -0.0095 ± 0.026 | 0.025 ± 0.023 | -0.0045 ± 0.016 | 0.0045 ± 0.015 | 0.005 ± 0.04 | 0.0215 ± 0.0092 |
| SAg:CD38 | -0.0045 ± 0.0078 | 0.003 ± 0.023 | -0.004 ± 0.0014 | -0.0005 ± 0.025 | -0.0045 ± 0.019 | 0 ± 0.027 | 0.013 ± 0.0014 | 0.003 ± 0.011 | 0.008 ± 0.0085 | -0.0055 ± 0.019 | 0.002 ± 0.021 | -0.002 ± 0.0071 | -0.0075 ± 0.00071 | 0.0075 ± 0.021 | 0.0045 ± 0.0092 | -0.005 ± 0.0028 | -0.0085 ± 0.0064 | -0.0155 ± 0.00071 | 0.0015 ± 0.015 | 0.059 ± 0.023 | -0.012 ± 0.02 | 0.0005 ± 0.021 | 0.0245 ± 0.0092 | -0.0055 ± 0.0078 | 0.0215 ± 0.018 | -0.013 ± 0.017 | 0 ± 0.017 | 0.0335 ± 0.05 | 0.0065 ± 0.0035 |
| SAg:CD40 | -0.001 ± 0.0028 | 0.0065 ± 0.016 | -0.0145 ± 0.012 | -0.0095 ± 0.021 | 0.007 ± 0.0042 | -0.0305 ± 0.042 | -0.001 ± 0.04 | -0.019 ± 0.013 | -0.017 ± 0.0014 | -0.0555 ± 0.077 | -0.005 ± 0.023 | -0.012 ± 0.0014 | -0.0225 ± 0.022 | 0.0095 ± 0.0092 | -0.0335 ± 0.053 | -0.0075 ± 0.0064 | -0.024 ± 0.011 | -0.0445 ± 0.036 | -0.0195 ± 0.021 | -0.0285 ± 0.0078 | -0.019 ± 0.031 | -0.0015 ± 0.00071 | -0.012 ± 0.017 | 0.0005 ± 0.00071 | 0.013 ± 0.011 | 0.0115 ± 0.025 | -0.004 ± 0.013 | 0.013 ± 0.058 | 0.001 ± 0.0085 |
| SAg:CD62E/E-Selectin | 0.021 ± 0.047 | 0.001 ± 0.018 | -0.01 ± 0.023 | 0.0195 ± 0.005 | -0.005 ± 0.031 | 0.017 ± 0.0071 | 0.058 ± 0.0099 | 0.036 ± 0.0014 | 0.022 ± 0.013 | 0.057 ± 0.0028 | -0.0015 ± 0.036 | -0.004 ± 0.033 | -0.008 ± 0.052 | -0.0025 ± 0.0078 | -0.0245 ± 0.018 | -0.0045 ± 0.005 | -0.008 ± 0.0085 | -0.001 ± 0.024 | -0.007 ± 0.04 | 0.021 ± 0.0085 | -0.005 ± 0.0014 | 0.0105 ± 0.011 | 0.011 ± 0.013 | 0.009 ± 0.014 | -0.0155 ± 0.026 | 0.01 ± 0.042 | -0.0165 ± 0.0078 | 0.025 ± 0.014 | -0.0045 ± 0.0078 |
